For some of these results: At least one result comes from cells or an extract, where the contact may be indirect. For some of these results: Negatives hold for the conditions tested. For some of these results: The exact form of at least one protein or probe is not confirmed. For some of these results: Where a protein sequence is shown, tags need not be part of it.
What was measured:
[1] = target: TCF-1 C200 (HMG domain) (Mus musculus) (UniProt Q00417); experiment: pull-down; settings: GST pull-down; purified recombinant protein; protein details: GST fusion, pGEX 4T-1; label: 32P-UTP
[2] = target: T1, TCF-1 N100 (β-catenin binding domain) (Mus musculus) (UniProt Q00417); experiment: pull-down; settings: purified recombinant protein; protein details: GST fusion, pGEX 4T-1; label: 32P-UTP
T1 sequence (looked up): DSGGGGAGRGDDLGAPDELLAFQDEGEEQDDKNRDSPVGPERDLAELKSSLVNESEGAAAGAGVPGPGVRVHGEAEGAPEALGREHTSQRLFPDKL

Protein sequences, listed by entry. Tags and fused reporters are not part of them. Residues count along the entry.
UniProt P35222, 129-695: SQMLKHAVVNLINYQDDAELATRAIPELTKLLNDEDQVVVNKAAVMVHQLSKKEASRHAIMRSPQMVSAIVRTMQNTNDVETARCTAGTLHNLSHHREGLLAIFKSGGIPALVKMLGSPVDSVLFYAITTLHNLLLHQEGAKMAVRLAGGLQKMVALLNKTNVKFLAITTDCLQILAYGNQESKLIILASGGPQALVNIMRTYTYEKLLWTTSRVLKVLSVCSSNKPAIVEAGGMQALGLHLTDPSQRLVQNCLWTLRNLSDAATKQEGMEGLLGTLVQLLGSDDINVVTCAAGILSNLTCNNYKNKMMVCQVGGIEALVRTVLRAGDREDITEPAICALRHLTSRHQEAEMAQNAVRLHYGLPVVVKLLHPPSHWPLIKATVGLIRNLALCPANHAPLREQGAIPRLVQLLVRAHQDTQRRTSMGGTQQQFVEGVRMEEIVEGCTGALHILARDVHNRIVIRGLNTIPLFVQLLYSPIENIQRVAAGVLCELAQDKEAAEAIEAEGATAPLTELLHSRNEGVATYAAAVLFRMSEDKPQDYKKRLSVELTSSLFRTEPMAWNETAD
UniProt P35222, 2-781: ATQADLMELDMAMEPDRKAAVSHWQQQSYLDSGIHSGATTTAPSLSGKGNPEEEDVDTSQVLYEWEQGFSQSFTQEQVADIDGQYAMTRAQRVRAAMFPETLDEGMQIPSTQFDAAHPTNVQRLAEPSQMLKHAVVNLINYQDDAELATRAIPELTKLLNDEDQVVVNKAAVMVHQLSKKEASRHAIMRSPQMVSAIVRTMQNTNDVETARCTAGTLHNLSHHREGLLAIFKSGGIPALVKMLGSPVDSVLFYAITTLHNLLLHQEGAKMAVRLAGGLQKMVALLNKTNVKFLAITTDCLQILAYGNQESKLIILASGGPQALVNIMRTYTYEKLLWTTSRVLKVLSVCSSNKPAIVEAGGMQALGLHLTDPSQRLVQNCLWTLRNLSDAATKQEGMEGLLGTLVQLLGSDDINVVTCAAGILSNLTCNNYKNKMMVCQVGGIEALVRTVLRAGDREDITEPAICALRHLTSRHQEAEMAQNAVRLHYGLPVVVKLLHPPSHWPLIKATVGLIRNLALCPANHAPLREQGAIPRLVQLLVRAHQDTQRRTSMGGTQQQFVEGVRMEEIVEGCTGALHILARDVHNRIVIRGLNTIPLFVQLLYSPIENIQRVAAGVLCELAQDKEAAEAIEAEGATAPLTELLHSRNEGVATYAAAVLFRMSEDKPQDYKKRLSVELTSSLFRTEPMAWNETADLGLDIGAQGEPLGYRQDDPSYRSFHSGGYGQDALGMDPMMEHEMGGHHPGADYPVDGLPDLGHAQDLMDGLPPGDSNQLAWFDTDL
UniProt P35222, whole entry: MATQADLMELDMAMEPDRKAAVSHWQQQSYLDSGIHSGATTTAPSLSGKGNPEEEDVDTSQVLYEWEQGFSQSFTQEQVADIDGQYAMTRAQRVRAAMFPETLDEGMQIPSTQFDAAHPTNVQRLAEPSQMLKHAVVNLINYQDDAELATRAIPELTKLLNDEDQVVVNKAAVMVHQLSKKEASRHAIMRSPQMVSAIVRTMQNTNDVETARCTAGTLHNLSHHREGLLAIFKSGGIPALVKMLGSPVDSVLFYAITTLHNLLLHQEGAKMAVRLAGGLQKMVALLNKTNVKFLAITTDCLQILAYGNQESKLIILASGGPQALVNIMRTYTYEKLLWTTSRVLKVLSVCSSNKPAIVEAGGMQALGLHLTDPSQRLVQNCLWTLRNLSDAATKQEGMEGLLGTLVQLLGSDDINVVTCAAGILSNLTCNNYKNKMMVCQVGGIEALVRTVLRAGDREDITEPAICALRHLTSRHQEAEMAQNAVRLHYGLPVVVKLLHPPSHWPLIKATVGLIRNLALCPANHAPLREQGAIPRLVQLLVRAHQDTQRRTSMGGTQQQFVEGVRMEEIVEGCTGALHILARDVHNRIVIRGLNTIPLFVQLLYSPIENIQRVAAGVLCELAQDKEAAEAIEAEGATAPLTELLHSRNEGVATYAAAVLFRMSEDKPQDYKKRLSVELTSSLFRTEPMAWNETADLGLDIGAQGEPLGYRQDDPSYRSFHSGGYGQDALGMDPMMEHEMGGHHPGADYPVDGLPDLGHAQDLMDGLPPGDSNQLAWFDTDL

[3] = test system: NFAT-1 DNA binding domain; experiment: pull-down; settings: purified recombinant protein; protein details: (His)6; label: 32P-UTP
GST-β-catenin Arm 1-12 = GST-β-catenin Arm 1-12 (UniProt P35222); experiment: pull-down; settings: β-catenin control; construct not given; purified recombinant protein; protein details: GST fusion, E. coli; label: 32P-UTP
[4] = target: TCF-1 C200 (HMG domain) (Mus musculus) (UniProt Q00417); experiment: competition with a labelled probe; settings: dose-dependent inhibition of TRE binding; purified recombinant protein; protein details: GST fusion, pGEX 4T-1; label: 32P-UTP; dose not given here
[5] = target: TCF-1 (S49.1 nuclear extract) (Mus musculus) (UniProt Q00417); experiment: competition with a labelled probe; settings: protein in an extract
[6] = target: TCF-1 (S49.1 nuclear extract) (Mus musculus) (UniProt Q00417); experiment: EMSA; settings: poly(dI-dC), protein in an extract
[7] = target: β-catenin (endogenous, HCT116 or SW480 nuclear extract) (Homo sapiens) (UniProt P35222); experiment: pull-down; settings: protein in an extract
[8] = target: GST-β-catenin, full length (UniProt P35222); experiment: inhibition of the protein; settings: disrupts recombinant β-catenin/TCF interaction in co-IP; purified recombinant protein; protein details: GST fusion, E. coli; label: 32P (radiolabelled); dose not given here
[9] = target: T2, γ-catenin (endogenous, HCT116 nuclear extract) (Homo sapiens) (UniProt P14923); experiment: pull-down; settings: no intramer associated with γ-catenin; protein in an extract; variant of β-catenin RNA aptamer
T2 sequence (looked up, limits assumed): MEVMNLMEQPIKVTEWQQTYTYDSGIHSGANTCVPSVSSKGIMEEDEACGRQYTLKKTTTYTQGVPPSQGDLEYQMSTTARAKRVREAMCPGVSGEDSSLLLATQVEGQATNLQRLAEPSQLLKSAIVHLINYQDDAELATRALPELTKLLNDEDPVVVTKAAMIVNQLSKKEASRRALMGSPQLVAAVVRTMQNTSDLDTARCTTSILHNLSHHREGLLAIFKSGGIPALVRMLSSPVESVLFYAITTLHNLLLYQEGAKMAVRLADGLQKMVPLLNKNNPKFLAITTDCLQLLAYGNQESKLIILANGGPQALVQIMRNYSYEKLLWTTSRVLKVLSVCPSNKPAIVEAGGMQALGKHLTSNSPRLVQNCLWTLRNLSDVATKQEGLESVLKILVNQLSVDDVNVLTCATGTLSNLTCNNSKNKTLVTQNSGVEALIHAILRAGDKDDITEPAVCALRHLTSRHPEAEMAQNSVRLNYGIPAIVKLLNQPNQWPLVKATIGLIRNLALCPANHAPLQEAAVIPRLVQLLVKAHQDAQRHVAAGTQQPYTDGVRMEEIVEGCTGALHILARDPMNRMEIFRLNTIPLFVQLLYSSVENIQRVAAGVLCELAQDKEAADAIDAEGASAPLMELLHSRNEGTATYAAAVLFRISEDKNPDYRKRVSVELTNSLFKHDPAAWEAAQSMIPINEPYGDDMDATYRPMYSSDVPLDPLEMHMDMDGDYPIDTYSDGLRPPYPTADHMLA

## CGGUGCGAUCAAGCUGUUUACAUUGCAUGCUAGGACGACGCGCCCGAGCGGGUACCGAUUGUGUCGUCGG [RNA aptamer #10]
[1]
  binding result: binds
[2]
  binding result: no binding
[3]
  binding result: no binding
GST-β-catenin Arm 1-12
  binding result: no binding
[4]
  functional effect of the aptamer: active
[5]; inhibits TRE binding to full-length TCF-1, label: 32P-UTP, dose not given here
  functional effect of the aptamer: active
[6]; room temperature, self-competition, label: 32P-UTP
  binding result: binds

## UGCUGACAAUUCUCGUGCCUCUCCAUGGUCUGCGGCUGAGAAGGUUCGCCAAGUUGUGGGCCGGGGUGC [RNA #9]
[5]; did not compete with #10
  binding result: no binding

## GGACGCGUGGUACCAGGCCGAUCUAUGGACGCUAUAGGCACACCGGAUACUUUAACGAUUGGCUAAGCUUCCGCGGGGAUC [β-catenin RNA aptamer]
[7]; label: 32P (radiolabelled)
  binding result: binds
[8]
  functional effect of the aptamer: active

## GGTAAGATCAAAGGG (double strand) [TRE (TCF responsive element)]
[6]; full-length TCF-1, S49.1 nuclear extract, label: 32P 5'-end
  binding result: binds

## GGACGCGUGGUACCAGGCCGAUCUAUGGACGCUAUAGGCACACCGGAUACUUUAACGAUUGGCUAAGCUUCCGCGGGGAUC [U6-RNA intramer (β-catenin aptamer under U6 promoter)]
[7]; RNA co-immunoprecipitation with anti-β-catenin from HCT116, variant of β-catenin RNA aptamer
  binding result: binds
[9]
  binding result: no binding

Reference: patent US7999089
